{"sequences": {"note": "By UniProt entry, the sequences of proteins in these tests, tags left out.", "UniProt P53350, whole entry, looked up": "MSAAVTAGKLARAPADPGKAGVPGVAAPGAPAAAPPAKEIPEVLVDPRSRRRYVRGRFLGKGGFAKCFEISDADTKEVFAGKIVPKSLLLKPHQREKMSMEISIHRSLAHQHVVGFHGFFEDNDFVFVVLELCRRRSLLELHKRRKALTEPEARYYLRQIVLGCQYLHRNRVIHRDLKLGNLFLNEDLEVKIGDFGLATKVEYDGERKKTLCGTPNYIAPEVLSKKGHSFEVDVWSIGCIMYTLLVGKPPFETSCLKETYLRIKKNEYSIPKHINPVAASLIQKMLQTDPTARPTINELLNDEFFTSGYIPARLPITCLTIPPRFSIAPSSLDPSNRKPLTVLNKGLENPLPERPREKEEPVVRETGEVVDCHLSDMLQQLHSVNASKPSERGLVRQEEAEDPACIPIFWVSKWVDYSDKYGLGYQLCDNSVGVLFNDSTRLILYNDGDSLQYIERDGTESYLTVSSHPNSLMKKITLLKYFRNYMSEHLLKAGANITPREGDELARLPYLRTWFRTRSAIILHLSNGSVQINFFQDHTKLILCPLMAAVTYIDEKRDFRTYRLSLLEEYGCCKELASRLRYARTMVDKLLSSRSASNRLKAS"}, "source": "PubChem BioAssay AID720504", "about": "(National Center for Advancing Translational Sciences (NCATS), 2013)", "note": "Values joined by “and” are separate entries in the source; they are usually repeats but may differ in a detail not shown here. Equal values may be shown once. The whole screen tested about 360,000 compounds, of which about 10,000 (2.8%) were called active. The inconclusive results got no clear call from the source; some entries with a clear call stand among them for comparison. Calls follow the shape of the dose curve; as a rule, active = well fitted inhibition curve with a large enough effect; inconclusive = small, poorly fitted or top-dose-only effect; inactive = flat fitted curve, though single readings scatter. Potencies of inconclusive entries are doubtful fits and often do not repeat.", "data": [{"target": "Serine/threonine-protein kinase PLK1 (Homo sapiens) (UniProt P53350)", "assay": "qHTS for Inhibitors of PLK1-PDB (polo-like kinase 1 - polo-box domain): Primary Screen; also: nearly all actives have a fitted effect of over 65% in size; also: potency is read from the fitted curve at half-maximal effect; as to max response, negative = inhibition: series mostly up to about 57 µM; % is scaled to controls: 0 for no effect and ±100 for the full control effect", "settings": "Plk1 PBD binding of FITC phosphopeptide, fluorescence polarization", "values": [{"molecule": "Cc1nn(C(C)C(=O)NNC(=S)Nc2ccc(Cl)cc2)c(C)c1[N+](=O)[O-]", "note": "(configuration not stated)", "Potency": "inconclusive: 7.52 µM [inhibitor, partial curve]"}, {"molecule": "COc1cccc(C(=O)Nc2cc([N+](=O)[O-])ccc2N2CCN(C)CC2)c1", "Potency": "inconclusive: 23.8 µM [inhibitor, partial curve]"}, {"molecule": "CCOc1cccc(CNCCO)c1OCc1ccc(Cl)cc1Cl", "max response, negative = inhibition": "inactive: -3.48%"}, {"molecule": "CCN(CC(=O)Nc1ccc(NC(C)=O)cc1)Cc1c(O)ccc2cc(Br)ccc12", "Potency": "active: 9.47 µM"}, {"molecule": "O=C(NCCN1CCCCCC1)c1ccc(N2CCCC2=O)cc1", "Potency": "inconclusive: 10.6 µM [inhibitor, partial curve]"}, {"molecule": "O=C(CSc1nnc(CNC(=O)c2ccco2)o1)Nc1ccc(Br)cc1", "Potency": "inconclusive: 16.8 µM [inhibitor, partial curve]"}, {"molecule": "O=C(CN1C(=O)c2ccccc2C1=O)NCc1ccccn1", "max response, negative = inhibition": "inactive: -7.68%"}, {"molecule": "COc1ccccc1N1CN(S(=O)(=O)c2ccc(C)cc2)c2nc3ccccc3nc21", "max response, negative = inhibition": "inactive: 1.09%"}, {"molecule": "COc1cccc(C(=O)c2ccncc2C(=O)O)c1OC", "max response, negative = inhibition": "inactive: 5.84%"}, {"molecule": "O=C(N/N=C/c1ccc(Cl)c([N+](=O)[O-])c1)C1CC1", "Potency": "inconclusive: 23.8 µM [inhibitor, partial curve]"}, {"molecule": "CCOC(=O)Cc1ccc(NC(=O)c2ccc(C(C)(C)C)cc2)cc1", "Potency": "active: 5.32 µM"}, {"molecule": "CCCCOC(=O)Sc1nc2ccccc2o1", "Potency": "inconclusive: 26.7 µM [inhibitor, single point]"}, {"molecule": "C/C=C(/C)C(=O)O[C@@H]1c2c(ccc3ccc(=O)oc23)O[C@@H]1C(C)(C)OC(C)=O", "Potency": "inconclusive: 5.32 µM [inhibitor, partial curve]"}, {"molecule": "COc1ccccc1Nc1nc2c(s1)CCC2", "Potency": "active: 26.7 µM"}, {"molecule": "Cc1sc(NC(=S)NC(=O)C(C)(C)C)c(C(N)=O)c1C", "Potency": "inconclusive: 13.4 µM [inhibitor, partial curve, poor fit]"}, {"molecule": "CCOC(=O)C1(C)CCN1C(=O)c1ccoc1", "note": "(configuration not stated)", "max response, negative = inhibition": "inactive: -9.28%"}, {"molecule": "Cc1ccccc1NC(=O)CSc1nnc(-c2ccco2)c(-c2ccco2)n1", "Potency": "active: 26.7 µM"}, {"molecule": "O=C(C[C@H]1C[C@H](C(=O)N2CCCCC2)[C@@]2(CCc3ccccc3)c3[nH]c4ccc(Cl)cc4c3CCN2C1=O)NCCC1=CCCCC1", "max response, negative = inhibition": "inactive: -2.28%"}, {"molecule": "COc1ccc(C(=O)N/C(=C\\c2cn(C)c3ccccc23)C(=O)N2CCN(C)CC2)cc1OC", "Potency": "active: 26.7 µM"}, {"molecule": "O=C(O)CSc1cccc2cccnc12", "max response, negative = inhibition": "inactive: -13.3% and inactive: -20.7%"}, {"molecule": "COCc1nnc(NC(=O)c2ccc(NC(C)=O)cc2)s1", "Potency": "inconclusive: 26.7 µM [inhibitor, partial curve]"}, {"molecule": "COc1ccc(C(=O)N/C(=C\\c2ccc(Cl)cc2)C(=O)NCc2ccncc2)cc1", "max response, negative = inhibition": "inactive: -0.718%"}, {"molecule": "COc1ccc(/C=C2\\C(=O)N(c3c(Cl)cc(Cl)cc3Cl)N=C2NC(=O)c2cccc([N+](=O)[O-])c2)cc1", "Potency": "active: 0.752 µM"}, {"molecule": "O=[N+]([O-])c1ccc(/C=N/NC(=S)Nc2ccccc2)o1", "Potency": "inconclusive: 21.2 µM [inhibitor, partial curve]"}, {"molecule": "CC(C)NC[C@@H](O)c1ccc(O)c(O)c1", "max response, negative = inhibition": "inactive: -7.36%"}, {"molecule": "O=C1CCCN1CCCNc1nc2c(S(=O)(=O)c3ccc(Br)cc3)nnn2c2ccccc12", "Potency": "inconclusive: 29.9 µM [inhibitor, partial curve]"}, {"molecule": "Cc1ccc(/C(O)=C2/C(=O)C(=O)OC2c2ccc(Cl)cc2)cc1", "note": "(configuration not stated)", "max response, negative = inhibition": "inconclusive: -33.5% [inhibitor]"}, {"molecule": "CCOc1c(Cl)cc(CNCC(O)c2ccccc2)cc1OC", "note": "(configuration not stated)", "max response, negative = inhibition": "inactive: -8.76%"}, {"molecule": "COc1cccc(/C=N/NC(=O)c2cc(-c3ccccn3)nc3ccccc23)c1O", "Potency": "inconclusive: 26.7 µM [inhibitor, single point]"}, {"molecule": "COc1ccc(C(=O)NNC(=S)NC(=O)c2cc(-c3ccccc3)nc3ccccc23)cc1", "Potency": "inconclusive: 16.8 µM [inhibitor, partial curve]"}, {"molecule": "COc1ccc(S(=O)(=O)C(C#N)c2nc3ccccc3nc2N2CCCCC2)cc1", "note": "(configuration not stated)", "Potency": "inconclusive: 26.7 µM [inhibitor, single point]"}, {"molecule": "S=C(NCCc1ccccc1)Nc1nccs1", "Potency": "inconclusive: 29.9 µM [inhibitor, single point]"}, {"molecule": "Fc1ccc(C2=CC(c3ccc(Br)o3)n3ncnc3N2)cc1", "note": "(configuration not stated)", "Potency": "active: 10.6 µM"}, {"molecule": "CN(C)N1C(N)=C(C#N)C(c2cccs2)C2=C1CC(C)(C)CC2=O", "note": "(configuration not stated)", "Potency": "inconclusive: 29.9 µM [inhibitor, partial curve]"}, {"molecule": "COc1ccc(NC(=O)Nc2ccccc2SC)c(OC)c1", "Potency": "inconclusive: 26.7 µM [inhibitor, single point]"}, {"molecule": "CC(=O)O/N=C1\\C(=O)N(Cc2ccc(C)cc2)c2ccccc21", "Potency": "inconclusive: 29.9 µM [inhibitor, partial curve]"}, {"molecule": "CC(=O)c1ccc(NC(=O)C2CCCN2S(=O)(=O)c2ccc(F)cc2)cc1", "note": "(configuration not stated)", "max response, negative = inhibition": "inconclusive: -30.2% [inhibitor]"}, {"molecule": "S=C(Nc1ccccc1)Nc1ccc2cn[nH]c2c1", "Potency": "inconclusive: 26.7 µM [inhibitor, single point]"}, {"molecule": "COc1ccc(C(=O)C2CCCN(C(=O)CCc3scnc3C)C2)c(C)c1", "note": "(configuration not stated)", "max response, negative = inhibition": "inactive: -5.3%"}, {"molecule": "O=C(O)CSCC(=O)N1N=C2/C(=C/c3ccccc3)CCCC2C1c1ccccc1", "note": "(configuration not stated)", "Potency": "inconclusive: 75.2 µM [inhibitor, partial curve]"}, {"molecule": "O=C(C=Cc1ccccc1O)c1ccccc1O", "Potency": "inconclusive: 21.2 µM [inhibitor, partial curve]"}, {"molecule": "CC(C)c1ccc2[nH]c3nc(SCC(=O)NC4CC4)nnc3c2c1", "max response, negative = inhibition": "inactive: -7.93%"}, {"molecule": "Nc1ccc(-c2c3ccc(=O)cc-3oc3cc(O)ccc23)c(C(=O)O)c1", "Potency": "inconclusive: 1.68 µM [inhibitor, full curve]"}, {"molecule": "Cc1cc2nc(-c3ccc(SCc4ccccc4C#N)nc3)[nH]c2cc1C", "Potency": "inconclusive: 11.9 µM [inhibitor, partial curve]"}, {"molecule": "O=C(Nc1ccccc1)Nc1cc(OCC(F)(F)F)cc(OCC(F)(F)F)c1", "max response, negative = inhibition": "inactive: -1.69%"}, {"molecule": "COc1ccccc1/C=C/C=N/n1c(COc2ccccc2)n[nH]c1=S", "Potency": "inconclusive: 26.7 µM [inhibitor, single point]"}, {"molecule": "O=[N+]([O-])C1=CC=C2C(=NC3(CCCCC3)N2O)C1=NCCc1ccccc1", "Potency": "inconclusive: 15 µM [inhibitor, partial curve]"}, {"molecule": "Cc1ccnc(N=O)c1", "Potency": "active: 10.6 µM"}, {"molecule": "O=C(O)C(Cc1ccccc1)N1C(=O)/C(=C/c2cccs2)SC1=S", "note": "(configuration not stated)", "Potency": "inconclusive: 26.7 µM [inhibitor, partial curve, poor fit]"}, {"molecule": "CCn1nc(NS(=O)(=O)c2ccc(NC(C)=O)cc2)c2cc3ccccc3nc21", "Potency": "active: 23.8 µM"}, {"molecule": "Oc1c(C(Nc2ccccn2)c2cccnc2)cc(Cl)c2cccnc12", "note": "(configuration not stated)", "Potency": "inconclusive: 23.8 µM [inhibitor, single point]"}, {"molecule": "O=C(Cn1c(-c2ccccc2)c[n+]2ccsc12)c1ccccc1", "max response, negative = inhibition": "inactive: -9.09%"}, {"molecule": "O=c1[nH]c2cc3c(cc2cc1CN(CCCO)C(=S)NCc1ccco1)OCO3", "Potency": "inconclusive: 26.7 µM [inhibitor, single point]"}, {"molecule": "C[C@H](NC(=O)c1ccc(C(C)(C)C)cc1)C(=O)N1CCC2(CC1)NCCc1[nH]cnc12", "Potency": "inconclusive: 21.2 µM [inhibitor, partial curve]"}, {"molecule": "Cc1nnc(SCC(=O)Nc2cccc(C(F)(F)F)c2)n1Cc1ccco1", "Potency": "inconclusive: 23.8 µM [inhibitor, single point]"}, {"molecule": "COc1ccc(OC)c(S(=O)(=O)ON2C(=O)c3ccccc3C2=O)c1", "Potency": "active: 11.9 µM"}, {"molecule": "Cc1ccc(NC(=O)CN(C)C(=O)CSc2ccc3c(c2)OCCO3)cc1", "Potency": "inconclusive: 26.7 µM [inhibitor, single point]"}, {"molecule": "O=C(Nc1ncccn1)c1ccc([N+](=O)[O-])cc1[N+](=O)[O-]", "max response, negative = inhibition": "inactive: -0.391%"}, {"molecule": "Nn1c(=O)c2ccccc2n2c(SCc3ccc(C(F)(F)F)cc3)nnc12", "Potency": "inconclusive: 26.7 µM [inhibitor, partial curve]"}, {"molecule": "Cc1cc(OC(C)C(=O)NCc2ccncc2)c2c(C)cc(=O)oc2c1", "note": "(configuration not stated)", "Potency": "inconclusive: 21.2 µM [inhibitor, partial curve]"}, {"molecule": "Cc1ccc(C(=O)Nc2ncc3c(n2)CC(c2ccco2)CC3=O)cc1", "note": "(configuration not stated)", "max response, negative = inhibition": "inactive: -4.89%"}, {"molecule": "CC(=O)N1CCC(C(=O)Nc2cc(C)cc(C)c2)CC1", "Potency": "inconclusive: 37.7 µM [inhibitor, single point]"}, {"molecule": "CCN(CC(=O)Nc1c(F)cccc1F)C(=O)Cc1ccc2c(c1)CCC2", "Potency": "active: 16.8 µM"}, {"molecule": "CC(Sc1nnc(NCc2ccccc2)s1)C(=O)Nc1ccc2c(c1)C(=O)c1ccccc1C2=O", "note": "(configuration not stated)", "Potency": "inconclusive: 26.7 µM [inhibitor, partial curve]"}, {"molecule": "Fc1ccc(N=c2ssnc2Cl)c(F)c1", "Potency": "active: 1.68 µM"}, {"molecule": "CCc1ccc(NC(=O)CSc2nc(C)cs2)cc1", "max response, negative = inhibition": "inactive: 1.96%"}, {"molecule": "Cc1cccc(C(=O)Nc2sc(C)c(-c3ccccc3)c2C#N)c1", "Potency": "inconclusive: 26.7 µM [inhibitor, single point]"}, {"molecule": "Cc1nnsc1Sc1ccccc1", "Potency": "active: 11.9 µM"}, {"molecule": "Cc1ccc(S(=O)(=O)CCN2CCC(n3cccc3)CC2)cc1", "max response, negative = inhibition": "inactive: -0.145%"}, {"molecule": "C[C@@H]1CCC(=O)N(C[C@@H](C)CSc2ccc(Br)cc2)CC1", "max response, negative = inhibition": "inactive: -7.39%"}, {"molecule": "CCOc1ccc(C(O)(CCC(C)C)C(CN2CCOCC2)c2ccccc2)cc1", "note": "(configuration not stated)", "max response, negative = inhibition": "inactive: -5.45%"}, {"molecule": "O=C(NC(=S)Nc1ccc(S(=O)(=O)Nc2ncccn2)cc1)c1ccc(Br)cc1", "Potency": "active: 10.6 µM"}]}]}
